Data on three substances can be found in PMC9883236.

Chains of the proteins cited; added tags and fusions are not shown. Lines headed by an entry give the natural chain unless they say otherwise; changes in a name come on top.
UniProt O94874: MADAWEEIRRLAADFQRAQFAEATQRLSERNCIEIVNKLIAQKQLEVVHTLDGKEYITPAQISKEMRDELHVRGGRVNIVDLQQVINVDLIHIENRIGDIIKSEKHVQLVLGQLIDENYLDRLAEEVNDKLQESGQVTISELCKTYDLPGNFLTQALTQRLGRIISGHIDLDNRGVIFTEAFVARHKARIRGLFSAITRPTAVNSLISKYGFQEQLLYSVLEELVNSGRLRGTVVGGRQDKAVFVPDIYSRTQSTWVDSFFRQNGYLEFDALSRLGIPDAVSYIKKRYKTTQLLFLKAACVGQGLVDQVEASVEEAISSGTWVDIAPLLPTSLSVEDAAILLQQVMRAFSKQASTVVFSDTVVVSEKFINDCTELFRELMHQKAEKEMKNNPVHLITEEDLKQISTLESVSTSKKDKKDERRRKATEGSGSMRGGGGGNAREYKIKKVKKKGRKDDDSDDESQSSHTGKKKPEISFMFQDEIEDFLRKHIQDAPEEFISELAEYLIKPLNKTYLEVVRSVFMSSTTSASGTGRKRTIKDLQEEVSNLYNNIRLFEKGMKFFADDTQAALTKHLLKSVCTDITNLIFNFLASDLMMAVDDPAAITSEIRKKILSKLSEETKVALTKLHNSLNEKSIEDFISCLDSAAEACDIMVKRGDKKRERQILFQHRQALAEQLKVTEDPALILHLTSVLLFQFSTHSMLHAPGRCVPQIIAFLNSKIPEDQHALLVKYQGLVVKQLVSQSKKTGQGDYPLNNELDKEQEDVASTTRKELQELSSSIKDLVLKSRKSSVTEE
UniProt Q86WV6: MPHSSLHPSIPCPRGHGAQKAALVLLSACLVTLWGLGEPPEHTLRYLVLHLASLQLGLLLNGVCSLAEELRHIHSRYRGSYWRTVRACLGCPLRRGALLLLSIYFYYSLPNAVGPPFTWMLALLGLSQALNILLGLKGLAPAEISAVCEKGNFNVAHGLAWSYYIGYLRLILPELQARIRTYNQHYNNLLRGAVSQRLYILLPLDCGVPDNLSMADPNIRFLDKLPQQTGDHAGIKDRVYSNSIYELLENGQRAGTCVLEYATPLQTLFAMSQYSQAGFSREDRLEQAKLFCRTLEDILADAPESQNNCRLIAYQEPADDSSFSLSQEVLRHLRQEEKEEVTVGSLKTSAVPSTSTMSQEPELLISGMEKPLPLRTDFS
UniProt Q99942: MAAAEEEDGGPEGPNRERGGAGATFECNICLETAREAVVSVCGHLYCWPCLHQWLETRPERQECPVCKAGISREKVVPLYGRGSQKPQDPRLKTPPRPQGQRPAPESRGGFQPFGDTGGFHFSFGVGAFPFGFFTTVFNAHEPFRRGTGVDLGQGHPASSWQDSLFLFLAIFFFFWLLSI

The target in assay [1] is V5-tagged UFL1 (UFM1-specific ligase 1), full length (UniProt O94874). The assay can be described thus: co-IP.
Assay [2] concerns the target STING-Myc (UniProt Q86WV6). Put plainly: co-IP; 293T cells cotransfected with TRIM29, RNF5 or TRIM30a and STING with varying doses of UFL1; co-immunoprecipitation, immunoblot.
In assay [3] the target is V5-tagged UFL1 (UFM1-specific ligase 1), full length (UniProt O94874). The assay can be described thus: co-IP; HEK293T cells transfected with full-length or truncated STING and UFL1; UFL1 immunoprecipitation, immunoblot.

No constants are given. Whether binding was seen depends on the method and setting. In cells and extracts the contact can be indirect. Some entries that bind do so weakly or less than the wild type.

Regarding “Flag-tagged STING (stimulator of interferon genes) (from UniProt Q86WV6 1-379)”, in assay [1], the binding entry is on record as “binds”.
On to “RNF5 (ring finger 5) (from UniProt Q99942 1-180) (enzyme)”, for which the binding result in assay [2] is listed as “binds”.
Consider “STING, full length (FL), as used with the truncation mutants of Fig. 4I and 4J (from UniProt Q86WV6 1-379)”, for which the binding entry in assay [3] is listed as “binds”.
